Some of the results follow.

This assay deals with T1, OsSMF1 (Oryza sativa, UniProt Q6ZLB0 1-436).
T1 sequence: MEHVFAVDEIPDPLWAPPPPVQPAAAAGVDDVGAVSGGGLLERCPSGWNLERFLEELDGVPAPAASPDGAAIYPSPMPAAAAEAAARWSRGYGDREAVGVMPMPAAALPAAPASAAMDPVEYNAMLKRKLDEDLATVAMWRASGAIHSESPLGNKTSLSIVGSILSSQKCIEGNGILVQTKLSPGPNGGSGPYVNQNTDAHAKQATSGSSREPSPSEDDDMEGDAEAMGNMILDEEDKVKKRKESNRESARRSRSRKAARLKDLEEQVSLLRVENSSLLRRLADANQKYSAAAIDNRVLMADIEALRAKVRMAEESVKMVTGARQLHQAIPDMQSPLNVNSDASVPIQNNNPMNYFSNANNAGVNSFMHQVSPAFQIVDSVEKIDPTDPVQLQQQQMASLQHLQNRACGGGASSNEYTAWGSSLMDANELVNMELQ
As to the kind of experiment: protein-binding microarray (RPBM); PBS, 2% BSA, 51.3 ng/ul salmon testes DNA, 50 uM zinc acetate, 200 nM TF, 25 C, 1 h; high values mean tight binding. To be noted: protein: recombinant; tags: N-terminal polyhistidine and DsRed monomer fusion (pET32a); chain copies: 2; label: CyDye5-dUTP incorporated in the synthesized complementary strand; 3' TTTTT single-stranded linker to array surface; dsDNA, one strand shown. The essentials: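 Polyhistidine-tagged DsRed fusions of transcription factors, joined at the N-terminus, were expressed in E. coli BL21-CodonPlus and isolated on Ni–NTA. They were incubated at 200 nM for 1 h at 25 °C on a custom Agilent array, double-stranded and BSA-blocked, in PBS with 2% BSA, salmon testes DNA and 50 µM zinc acetate. The binding signal is per-feature fluorescence intensity (arbitrary units) read on an Axon 4000B scanner after washing.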
With “GAGGTGTACCACTAAGTGTGTACGTGTATAGTGGGGCGTGCGGAGTCACCTAGTGCAG”, the binding signal was 7420 fluorescence intensity (a.u.).
Turning to “GGCCGCGCTCGAGACCAGTCCACGGTGTCGTCCACCGCCCCGGAGTCACCTAGTGCAG”, the binding signal was 4480 fluorescence intensity (a.u.).
With “AAAGCCTCGCCGCCATCTCTCTCCACCACCCAAAATTTCTCGGAGTCACCTAGTGCAG”, the binding signal was 35600 fluorescence intensity (a.u.).
With “CATTGGGGCGTGAAAGCGTCGTCAGAAATTCATCGGGGCTCGGAGTCACCTAGTGCAG” the figure was 3140 fluorescence intensity (a.u.).
Then “TCTACCTCCGCCGCACGTGCCGCATCTTCCGCCGCCTCTGCGGAGTCACCTAGTGCAG”, with 3330 fluorescence intensity (a.u.).
As for “TTTGTGTGTGTGGTTATGGTTCTTCGCCTATTCATCAACCCGGAGTCACCTAGTGCAG”, the binding signal was 3320 fluorescence intensity (a.u.).
For the sequence “CATTCATACTGATGCTAATGAATCTCGACATATGTATCTACGGAGTCACCTAGTGCAG”, the binding signal was 22500 fluorescence intensity (a.u.).
Take “GCCGATGCATGCTCACACGATACATACTTTTCATTTCACCCGGAGTCACCTAGTGCAG”: the binding signal is 21100 fluorescence intensity (a.u.).
Then “TAAGTGGCAGGTTGAATGATGTCGTCCCCATCCACCACCACGGAGTCACCTAGTGCAG”, with 3260 fluorescence intensity (a.u.); and “GTCGGCTTGCGTGGTAGCGTGACCTGGCAAACAGAGAGCACGGAGTCACCTAGTGCAG”, with 6280 fluorescence intensity (a.u.).
With “ATGGAAAACCGTAGAGTACGAAGAGAACAGATGAATGCGACGGAGTCACCTAGTGCAG” the figure was 26100 fluorescence intensity (a.u.).
With “CGTGCTTATTCAAATCTACGGTGAGAGCTAACACTACGTGCGGAGTCACCTAGTGCAG”, the binding signal was 23400 fluorescence intensity (a.u.).
Then “ACATCGTCGTCGTCAAGCTGCAGGTTTCTGAACAAGAGATCGGAGTCACCTAGTGCAG”, with 3260 fluorescence intensity (a.u.); and “CGAGCCGACGGATGTTGGCGTGGTGGTGGTGACGAGGATGCGGAGTCACCTAGTGCAG”, with 4900 fluorescence intensity (a.u.); and “TTTCTTGGTGCGTGGTTACTTTCTTAGGGATGACAGGTGGCGGAGTCACCTAGTGCAG”, with 5290 fluorescence intensity (a.u.).
As for “CGGGCCCACATGTCAGCCTCACTCAGCATCGGGTCCCGCACGGAGTCACCTAGTGCAG”, the binding signal was 4300 fluorescence intensity (a.u.).
Take “TTAGACAAGTTATAAAACTTTCTTTCACACGATACTATCCCGGAGTCACCTAGTGCAG”: the binding signal is 3240 fluorescence intensity (a.u.).
Then “GTCAAGTGCGATGGAACTGATCGATCTTGGGTTGATTCTCCGGAGTCACCTAGTGCAG”, with 3490 fluorescence intensity (a.u.); and “TTCCTCCTCCCCGTCGTGCTCGCCGCCCACGACTCCTCCTCGGAGTCACCTAGTGCAG”, with 3150 fluorescence intensity (a.u.); and “TGGGGTGTGTCAAGCAGTAAGGCATAGAGATGACGATGACCGGAGTCACCTAGTGCAG”, with 4030 fluorescence intensity (a.u.).
Turning to “CTTGCATGCAGCGGTTTGAATGAAATGACCATTCTACCCTCGGAGTCACCTAGTGCAG”, the binding signal was 37800 fluorescence intensity (a.u.).
With “TTGCCGCATCAGAGACAGGTGTCAGCGGAGGTGGTGGTTGCGGAGTCACCTAGTGCAG” the figure was 3740 fluorescence intensity (a.u.); with “CATAATCGTCGTAGTAGATCCCATCAAACGTAACGTGTGTCGGAGTCACCTAGTGCAG”, 3380 fluorescence intensity (a.u.); with “GCGCCACTCTCGCTGACTCGCTCGCTGCCAAGCTCGCCGGCGGAGTCACCTAGTGCAG”, 3700 fluorescence intensity (a.u.).
As for “AACCGACAATCCGCCGCGATGCGCTGGCGTTGCCTTGCCCCGGAGTCACCTAGTGCAG”, the binding signal was 7010 fluorescence intensity (a.u.).
With “CCGGGTGTCCCGTTGTCAGTACGTGGGAGGCGGTTACCCCCGGAGTCACCTAGTGCAG” the figure was 4050 fluorescence intensity (a.u.); with “AGCAGAAGCGAATGCATACTAACCCTTGCCAGGTGATTGGCGGAGTCACCTAGTGCAG”, 3140 fluorescence intensity (a.u.).
As for “TGAAGCAGTGATGCATGCGTGACAAAGATTGAGATTTGATCGGAGTCACCTAGTGCAG”, the binding signal is 3640 fluorescence intensity (a.u.).
For the sequence “GCACCTTGAATGAATTATCTAGCAAAGCCAGCGTAGACGTCGGAGTCACCTAGTGCAG”, the binding signal was 30200 fluorescence intensity (a.u.).
On to “CCCACACAACCAAGCCGCCGTCCGTTGTAAACTAATACGGCGGAGTCACCTAGTGCAG”, for which the binding signal is 19100 fluorescence intensity (a.u.).
With “TGTATTGACTTGTTTGTCACGGTTTGAGCATTTGCACCTGCGGAGTCACCTAGTGCAG” the figure was 4310 fluorescence intensity (a.u.).
As to “CCACACGTACGTAACGTATACGTACGTACAACGTATATCTCGGAGTCACCTAGTGCAG”, the binding signal is 5090 fluorescence intensity (a.u.).
On to “CCGTCGCCGTCGGCACCGCCGCCGGAGCTCCTCCCTGCTCCGGAGTCACCTAGTGCAG”, for which the binding signal was 3220 fluorescence intensity (a.u.).
Consider “TAAAGCTCATTGGTTCATTTTGATTCTGCATCACCATTTGCGGAGTCACCTAGTGCAG”, for which the binding signal was 32600 fluorescence intensity (a.u.).
With “TAAGGAAAGGAAAGGAAAGGAAAGGAAACGGCCTCCACTCCGGAGTCACCTAGTGCAG” the figure was 5320 fluorescence intensity (a.u.); with “GGACACCCGCTCCGCGTCGCGCGCACGCTAGAAGAACTCCCGGAGTCACCTAGTGCAG”, 3140 fluorescence intensity (a.u.).
With “TACTTTAAATGTGTGTCCGTATATCCGATGTGACACGCCACGGAGTCACCTAGTGCAG” the figure was 3870 fluorescence intensity (a.u.).
On to “GCTGCATGTATTTTCAACCGTTAATTCGGATGACCAATAGCGGAGTCACCTAGTGCAG”, for which the binding signal was 25700 fluorescence intensity (a.u.).
With “CTCCTCTTGACATCACCCTACTTCCATATGCTGGCTTTAACGGAGTCACCTAGTGCAG”, the binding signal is 4320 fluorescence intensity (a.u.).
Then “CCCCTTCCTAGCAGATTCGCATCGAATCCCGATCTGAGCTCGGAGTCACCTAGTGCAG”, with 19600 fluorescence intensity (a.u.); and “AATCATAAGTAAAGCAAGGATTTGACACGTCGAGGAGCGCCGGAGTCACCTAGTGCAG”, with 4150 fluorescence intensity (a.u.).
Turning to “TCAGAAAAGTATTGACTCACCATCACTTGGCATGAAGAAGCGGAGTCACCTAGTGCAG”, the binding signal was 3880 fluorescence intensity (a.u.).
Turning to “GGGGATATCAAAACGGCCGTGAGATAGTATCTGGAGAAAACGGAGTCACCTAGTGCAG”, the binding signal was 38200 fluorescence intensity (a.u.).
“ACCAGCGGCGGCCGTGCCGTTTGCTTGCGAACTAGCCGTGCGGAGTCACCTAGTGCAG”: the binding signal is 3190 fluorescence intensity (a.u.).
In the case of “GACTGATATGTCAGCACTCTTTGTTTTCGTACTAGCCTGCCGGAGTCACCTAGTGCAG”, the binding signal is 4380 fluorescence intensity (a.u.).
With “TACTTATATCCATCATATCTATCTACATACTTGATCAAAACGGAGTCACCTAGTGCAG” the figure was 3200 fluorescence intensity (a.u.).
With “CTAGCTACCTCTCACACGTACGTAAGGTCACACTAGCCACCGGAGTCACCTAGTGCAG” the figure was 4700 fluorescence intensity (a.u.); with “AGCCCGGGCACCGCCGCCGCCCGCAGGCGATCAGCTACACCGGAGTCACCTAGTGCAG”, 16600 fluorescence intensity (a.u.); with “CTCTCTCTCGATCCCGTCTCGTCTCGTCAGTCTGCACCCGCGGAGTCACCTAGTGCAG”, 4540 fluorescence intensity (a.u.).
Consider “CTTCCTCTCGCCAGTGCCACCACAGCTCAAGCGTGATCCACGGAGTCACCTAGTGCAG”, for which the binding signal is 3970 fluorescence intensity (a.u.).
“GCTCCGCCGTCTTCGCATCCGTCATCTCCGCCACCGATCCCGGAGTCACCTAGTGCAG”: the binding signal was 3600 fluorescence intensity (a.u.).
With “CCTTCGCCGCCGGCGCCGCCGTTCGCCATCACCGAGCAAGCGGAGTCACCTAGTGCAG”, the binding signal was 4800 fluorescence intensity (a.u.).
As to “TGACCAAAGGCTTCATACACCCTGGCAGCAAAGAGCATTTCGGAGTCACCTAGTGCAG”, the binding signal was 3770 fluorescence intensity (a.u.).
As for “CCTCGGACAACACCACAGCCTCGTCCTCATTCTCCGTGGACGGAGTCACCTAGTGCAG”, the binding signal was 3720 fluorescence intensity (a.u.).

The record behind these values is PMC7819943, “Rice protein-binding microarrays: a tool to detect cis-acting elements near promoter regions in rice”.
